The results in this text go back to publication PMC5912950.

This assay addresses T1, Mind Bomb-2 (MIB2), endogenous (human (endogenous in HEK293, MDA-MB-231, HT1080, 786-0)) (UniProt Q96AX9).
T1 sequence: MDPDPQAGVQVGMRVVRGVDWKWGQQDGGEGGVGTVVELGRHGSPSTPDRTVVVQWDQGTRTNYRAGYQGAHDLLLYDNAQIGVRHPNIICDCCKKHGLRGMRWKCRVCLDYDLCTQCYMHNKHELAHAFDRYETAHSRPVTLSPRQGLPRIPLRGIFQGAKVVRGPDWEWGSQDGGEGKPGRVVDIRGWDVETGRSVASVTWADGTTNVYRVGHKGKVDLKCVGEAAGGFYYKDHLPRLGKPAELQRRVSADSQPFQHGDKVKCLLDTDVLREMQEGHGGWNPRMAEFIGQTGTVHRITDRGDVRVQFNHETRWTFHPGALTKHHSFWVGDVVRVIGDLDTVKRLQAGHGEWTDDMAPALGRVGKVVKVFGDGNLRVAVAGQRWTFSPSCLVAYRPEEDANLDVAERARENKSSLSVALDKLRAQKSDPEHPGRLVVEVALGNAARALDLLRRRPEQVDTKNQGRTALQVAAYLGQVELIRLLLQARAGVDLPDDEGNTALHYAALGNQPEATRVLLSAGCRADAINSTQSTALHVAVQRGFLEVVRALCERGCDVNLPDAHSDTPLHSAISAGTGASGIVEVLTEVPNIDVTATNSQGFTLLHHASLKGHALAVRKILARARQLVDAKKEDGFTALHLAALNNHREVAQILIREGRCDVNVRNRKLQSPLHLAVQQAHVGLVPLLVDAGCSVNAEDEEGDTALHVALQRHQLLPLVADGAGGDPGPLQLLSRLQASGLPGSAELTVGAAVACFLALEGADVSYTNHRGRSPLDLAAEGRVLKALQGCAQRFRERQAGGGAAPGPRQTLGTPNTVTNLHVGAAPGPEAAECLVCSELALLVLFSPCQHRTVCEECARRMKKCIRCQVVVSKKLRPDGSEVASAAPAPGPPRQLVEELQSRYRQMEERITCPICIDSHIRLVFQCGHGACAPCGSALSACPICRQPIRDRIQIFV
The assay is described as follows: co-IP; immuno-precipitation of endogenous MIB2 with a MIB2 antibody (protein A/G agarose) from MDA-MB-231 or 786-0 cells treated with FLAG-hTNF (0.8 μg/mL) for the indicated times; western blot. (In general: Immunoblotting shows a protein as a band on a membrane.)

Results are given in words; binding and its absence hold for the method and conditions named. In cells and extracts the contact can be indirect. Some results given as binding are weak or reduced against the parent protein; the word gives no strength.

B1: TRADD, endogenous (protein, UniProt Q15628 1-312)
chain: MAAGQNGHEEWVGSAYLFVESSLDKVVLSDAYAHPQQKVAVYRALQAALAESGGSPDVLQMLKIHRSDPQLIVQLRFCGRQPCGRFLRAYREGALRAALQRSLAAALAQHSVPLQLELRAGAERLDALLADEERCLSCILAQQPDRLRDEELAELEDALRNLKCGSGARGGDGEVASAPLQPPVPSLSEVKPPPPPPPAQTFLFQGQPVVNRPLSLKDQQTFARSVGLKWRKVGRSLQRGCRALRDPALDSLAYEYEREGLYEQAFQLLRRFVQAEGRRATLQRLVEALEENELTSLAEDLLGLTDPNGGLA
Turning to B1, the binding entry is listed as “binds”.

B2: SHARPIN, endogenous (protein, UniProt Q9H0F6 1-387)
chain: MAPPAGGAAAAASDLGSAAVLLAVHAAVRPLGAGPDAEAQLRRLQLSADPERPGRFRLELLGAGPGAVNLEWPLESVSYTIRGPTQHELQPPPGGPGTLSLHFLNPQEAQRWAVLVRGATVEGQNGSKSNSPPALGPEACPVSLPSPPEASTLKGPPPEADLPRSPGNLTEREELAGSLARAIAGGDEKGAAQVAAVLAQHRVALSVQLQEACFPPGPIRLQVTLEDAASAASAASSAHVALQVHPHCTVAALQEQVFSELGFPPAVQRWVIGRCLCVPERSLASYGVRQDGDPAFLYLLSAPREAPATGPSPQHPQKMDGELGRLFPPSLGLPPGPQPAASSLPSPLQPSWSCPSCTFINAPDRPGCEMCSTQRPCTWDPLAAAST
Turning to B2, the binding result is “binds”.
